One assay addresses T1, HPL-1::GFP (C. elegans) (UniProt G5EET5).
T1 sequence: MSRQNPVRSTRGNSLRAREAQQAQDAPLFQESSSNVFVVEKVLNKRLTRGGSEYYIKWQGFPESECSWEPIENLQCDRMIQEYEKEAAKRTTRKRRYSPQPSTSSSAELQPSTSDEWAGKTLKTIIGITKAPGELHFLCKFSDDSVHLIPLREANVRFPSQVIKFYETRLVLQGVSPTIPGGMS
Nature of the assay: co-IP; 2 mg total protein from eggs of hpl-1::GFP or hpl-2::GFP lines in IP buffer B (300 mM KCl, 0.2% Igepal), pre-cleared, Magnetic GFP-Trap beads 2 h at 4°C, five washes; western blotting. (In general: In western blotting, separated proteins are transferred to a membrane and probed.)

The target in the next assay is T2, HPL-2::GFP (C. elegans) (UniProt G5EDE2).
T2 sequence: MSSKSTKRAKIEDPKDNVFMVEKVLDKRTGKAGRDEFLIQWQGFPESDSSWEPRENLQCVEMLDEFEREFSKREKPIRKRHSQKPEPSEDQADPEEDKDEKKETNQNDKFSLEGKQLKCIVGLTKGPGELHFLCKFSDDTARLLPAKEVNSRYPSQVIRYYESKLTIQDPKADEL
The description is as above.

These are yes or no findings as the source states them, for the method shown. Binding seen in cells or lysates may run through a third protein. Some binding calls cover weakened binding; strength is not graded here. Where a sequence is shown, tags or fusion partners need not be part of it.

B1: SPR-5 (protein, UniProt Q9XWP6 1-770)
chain: MSSDTGSEYLDEEIRGDELGPSIDDNALAAAASAARLPFDRPTDHELAFFPELWEHKTAVEVFLLLRNSTLATWQYNPLKECTALDVRNNVFPPFNSDLDLIQNIVHYLSRHGLINFGRYVRSTKISRFLVRDRRSVIVIGAGAAGISAATQLESFGFDVIVLEARNCIGGRIHSFKSKSGEIMETGGDTLRKIEDSPMATLLHQVNFEEHGVFDFTSVFVEGRPLNEEKIHLFLDHYKSAHGALNYQAHQCEHRDDQGSFISRQQAYENLLSMCERGTLIKYYNFCKSLETVARAREHHFNQMKQLRMTALMAENQLKKMEEEGNLEQDPVLRRSLKRDIATSLEKFEEVADAFETADNHWQRLNEHPQAKQYMHPGSEFATFNFMLGFEEYLVGAQLEKVQFSCDSMQNKENGVAARLTEGIAELLTQLSEKRKLDIRLKHRVLDIDYSGFEHVLLKVQRENGDIEEMKAAFVVSTLPIGVLKKTIIADERAPTFTPSLPDKKVEAIRNIGCGSVNKCILEFDRVFWTANGGRNQFVTVSPNIKTRGSMNIWSSVPGSKVLCTYIVGEEAMLELPDDVIIQNAMINLQKAFGNNCPRAPISAHITRWHDDELAFGSGAFMSLRTETTSFDDVMEPLKTSDGMSRVYFAGEHTCSSYTSTIQGAWMSGARAAADISNDHIGIGFVDISGTRGQRGDEEEELLIEVDIDGKIPEKDENEAVADIPNAPNAPNAQKPEEIPKIAEEIELVAEAEKAEKAEVQLEPLVPTVE
For the molecule B1, the binding entry was “binds” in the assay with HPL-1::GFP (C. elegans) and “no binding” in the assay with HPL-2::GFP (C. elegans).

The values are drawn from publication PMC4787770.
